Assay results from PubChem BioAssay AID179 (DTP/NCI, 2004).
pEC50, pIC50: −log10 of the molar value.

Test system: CEM cells HIV-1 protection, formazan growth assay
Test: NCI AIDS Antiviral Assay
Method in brief: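 Screen of anti-HIV-1 activity in human CEM cells using a formazan-based growth measurement at five drug concentrations. Hits with 50% or greater protection were repeated, and confirmation required reproducible complete protection.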

With `COc1c(O)cc2c(c1OC)-c1ccc(OC)c(=O)cc1[C@@H](NC(C)=O)CC2` as the molecule, how does the pEC50 read?
The pEC50 was < 6.70.

And the pIC50 (measured here: growth of uninfected CEM cells)?
Its pIC50 is 7.49.
